We go through 64 molecules from PubChem BioAssay AID493014 (National Center for Advancing Translational Sciences (NCATS), 2011).

The nature of the assay: qHTS Assay to Find Inhibitors of Chronic Active B-Cell Receptor Signaling. As to conditions: ABC-DLBCL IkBa-CBG/CBR reporter, luminescence ratio (green luciferase fused to IkBa over red control in TMD8 lymphoma cells), 4 h. Put shortly:
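Concentration-response series (up to 46 uM) were applied to TMD8 dual-reporter cells for 4 h at 37C with doxycycline. Green/red ratio, after filter-overlap correction, defined %Activity; red signal alone was normalised to basal cells and zero luminescence.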

Where [1] appears, read: measured here: CBR red luminescence, cell number.
The mark [2] stands for this setting: measured here: IkBa-CBG green luminescence.

Broadly, the AC50 is the concentration giving half of the maximal activity seen.

This is one part of the list. Further columns of the screen follow, without active or inactive calls. Compounds called inactive in the main read-out are mostly missing here. Words in brackets tell the shape of the fitted curve; partial curves, single points and poor fits give uncertain potencies.

Take `CC(=O)OCC(=O)[C@@]1(O)[C@H](C)C[C@H]2[C@@H]3CCC4=CC(=O)C=C[C@]4(C)[C@@]3(F)[C@@H](O)C[C@@]21C`: the AC50 under setting [1] was 14.6 µM [rising, partial curve, poor fit].

With `COc1cc(C(=O)Nc2ccccc2N2CCN(S(C)(=O)=O)CC2)cc(OC)c1OC`, under setting [1], the AC50 was 7.08 µM [rising, partial curve, poor fit].

For the molecule `COC(=O)c1cccc(Cn2nc(C)c([N+](=O)[O-])c2C)c1`, the AC50 under setting [1] was 35.5 µM [rising, single point].

For the molecule `O=c1c2ccccc2nc(-c2ccccc2)n1CCCN1CCOCC1`, the AC50 under setting [1] was 4.11 µM [falling, partial curve, poor fit].

In the case of `NC(=O)c1cc(NC(=O)CCc2nc3ccccc3s2)cc(C(N)=O)c1`, the AC50 under setting [1] is 11.2 µM [falling, single point].

Take `CCOC(=O)c1ccc(S(=O)(=O)N2CCN(CC(=O)NC(=O)NC(C)(C)C)CC2)cc1`: under setting [1], the AC50 was 0.366 µM [rising, partial curve, poor fit].

In the case of `Cc1ccc(CNC(=O)CSCc2ccccc2C)cc1`, the AC50 under setting [1] is 0.794 µM [rising, full curve, poor fit].

Turning to `Cc1ccc(NC(=O)c2ccc(NCCN)c([N+](=O)[O-])c2)cc1`, the AC50 under setting [1] is 18.4 µM [falling, partial curve].

Take `CC(C)=CCC/C(C)=C/CNC(=O)C[C@H]1C[C@H](C(=O)N2CCOCC2)[C@@]2(C)c3[nH]c4cc(-c5ccco5)ccc4c3CCN2C1=O`: the AC50 under setting [1] was 20.6 µM [falling, partial curve, poor fit].

Take `Cc1cc(C)c2c(c1)C1C=CCC1C(c1ccc(S(=O)(=O)N3CCOCC3)cc1)N2` (stereo not given): the AC50 under setting [1] is 22.4 µM [falling, single point].

Take `CCOC(=O)C1CCN(C(=O)/C=C/c2cc(OC)c(OC)c(OC)c2)CC1`: the AC50 under setting [1] was 16.4 µM [rising, partial curve].

In the case of `Cc1ccsc1C(=O)OCC(=O)Nc1cccc(F)c1`, the AC50 under setting [1] was 14.6 µM [rising, partial curve, poor fit].

As for `COc1ccc(N2C(N)=C(C#N)C(c3cccnc3)C3=C2CC(C)(C)CC3=O)cc1` (stereo not given), the AC50 under setting [1] was 0.82 µM [rising, full curve, poor fit].

For the molecule `Cc1nc2cc(NC(=O)NCCC3=CCCCC3)ccc2o1`, the AC50 under setting [1] was 10.3 µM [rising, partial curve, poor fit].

In the case of `COc1ccccc1NC(=O)CSc1nc2n[nH]c(C)c2c(=N)n1-c1ccccc1Cl`, the AC50 under setting [1] was 29.1 µM [falling, single point].

Turning to `CCOc1ccc2c(c1)C(c1ccccc1)=NNC(c1ccccc1)=N2`, under setting [1], the AC50 was 9.2 µM [falling, partial curve].

With `O=C(NCCc1ccccc1)c1ccc([N+](=O)[O-])cc1`, under setting [1], the AC50 was 35.5 µM [falling, single point].

With `COc1cccc(/C=N/NC(=S)Nc2cccc(C(=O)O)c2)c1O`, the AC50 under setting [1] was 4.47 µM [falling, full curve].

As to `CN(c1ccccc1)S(=O)(=O)c1cccc(NC(=O)c2cncc(Br)c2)c1`, the AC50 under setting [1] was 35.5 µM [falling, single point].

As to `CN1CCN(C(=O)c2ccc3c(Cl)c4c(nc3c2)CCCC4)CC1`, the AC50 under setting [1] is 7.08 µM [falling, partial curve].

On to `COc1cccc(C(=O)NCc2ccc(-c3nc4ccccc4s3)cc2)c1`, for which the AC50 under setting [1] was 29.1 µM [rising, single point].

`COc1ccccc1-n1c(CNC(=O)c2cccc([N+](=O)[O-])c2C)n[nH]c1=S`: under setting [1], the AC50 is 1.41 µM [falling, full curve].

Consider `COc1cccc2cc(C(=O)NCc3ccc(C)cc3)c(=O)oc12`, for which, under setting [1], the AC50 is 12.6 µM [falling, partial curve].

For `CCc1ccc(NC(=O)C2C3/C=C\CCCCC32)cc1` (stereo not given), the AC50 under setting [1] is 0.82 µM [rising, full curve, poor fit].

Consider `O=C(CC1N=C2c3ccccc3N=C(SCc3ccccc3F)N2C1=O)NCCc1ccccc1` (stereo not given), for which the concentration at half-maximal activity (AC50) under setting [1] is 35.5 µM [falling, single point].

Regarding `O=C(CSc1nc2ncc(Br)cc2[nH]1)Nc1ccccc1-c1ccccc1`, the AC50 under setting [1] is 11.2 µM [falling, partial curve, poor fit].

As to `O=C(CCN1CCCCC1)c1ccccc1`, under setting [1], the AC50 was 20.6 µM [rising, single point].

Consider `CCC(CC)c1nnc(NC(=O)C2COc3ccccc3O2)s1` (stereo not given), for which the AC50 under setting [1] is 3.55 µM [rising, partial curve, poor fit].

As for `Clc1ccc(NCc2nnc3n2CCCCC3)cc1`, the AC50 under setting [1] is 6.51 µM [rising, single point].

As to `COc1ccc(NC(=O)c2ccccc2NS(C)(=O)=O)cc1OC`, under setting [1], the AC50 is 29.1 µM [falling, single point].

In the case of `CCC(C)n1cnc2c(c1=O)c1nc3ccccc3nc1n2Cc1ccc(OC)cc1` (stereo not given), under setting [1], the AC50 was 35.5 µM [falling, single point].

Take `Nc1nn2c(C(F)(F)F)cc(=O)[nH]c2c1N=Nc1cccc(F)c1`: the AC50 under setting [1] was 0.251 µM [falling, full curve].

Turning to `O=C(N/N=C\c1ccncc1)c1ccc(Cl)s1`, the AC50 under setting [1] was 12.6 µM [falling, partial curve].

As for `COc1ccc(C(=O)NC(=S)NC2CCSC2=O)cc1` (stereo not given), the AC50 under setting [2] was 20.6 µM [falling, single point].

Take `N#Cc1cc(NC2CCCC2)c([N+](=O)[O-])cc1C#N`: the AC50 under setting [1] was 6.51 µM [rising, partial curve].

As to `COC(=O)c1cccc(NC(=O)CSc2ncn[nH]2)c1`, under setting [1], the AC50 is 13 µM [falling, partial curve, poor fit].

With `Cc1cccc(/C(N)=N/OC(=O)COc2ccc(Cl)c(C)c2)c1`, the AC50 under setting [1] was 29.1 µM [rising, single point].

For the molecule `CSc1oc(-c2ccccc2)nc1S(=O)(=O)c1ccc(F)cc1`, the AC50 under setting [1] is 12.6 µM [falling, partial curve, poor fit].

For the molecule `CCS(=O)(=O)Nc1ccc(C(=O)c2ccccc2)cc1`, the AC50 under setting [1] is 29.1 µM [falling, single point].

On to `Cc1ccc(-n2nc3c(SCCN4CCOCC4)nnc(C)c3c2C)cc1`, for which the AC50 under setting [1] was 18.4 µM [falling, single point].

As for `Cc1cccn2c(=O)c3cc(C(=O)N4CCN(Cc5ccccc5)CC4)sc3nc12`, the AC50 under setting [1] is 2.91 µM [rising, single point].

For `CC(C)(C)c1ccc(C(=O)NC(=O)COC(=O)c2ccco2)cc1`, the AC50 under setting [1] is 7.31 µM [rising, partial curve, poor fit].

Consider `O=C(O)c1ccc2c(c1)c1c3n2CCNC3CCC1` (stereo not given), for which the AC50 under setting [1] is 17.8 µM [falling, single point].

Take `CCOc1cc(CC(=O)N[C@@H](CC(C)C)c2ccccc2N2CCCCC2)ccc1C(=O)O`: the AC50 under setting [1] was 17.8 µM [falling, single point].

For `O=C(COC(=O)CSc1ccc(F)cc1)NNC(=O)c1ccc([N+](=O)[O-])cc1`, the AC50 under setting [1] is 0.082 µM [rising, full curve, poor fit].

As for `O=C1c2ccccc2NC(c2ccc(-c3ccc(F)cc3)o2)N1O` (stereo not given), the AC50 under setting [1] was 29.1 µM [falling, single point].

As to `O=C(Nc1ccc(N2CCOCC2)nc1)c1cccs1`, the AC50 under setting [1] is 10 µM [falling, partial curve].

Take `COc1cccc(C(=O)NNC(=O)Cc2ccc(Cl)cc2)c1`: the AC50 under setting [1] is 7.31 µM [falling, partial curve, poor fit].

In the case of `Cc1ccc(S(=O)(=O)N(C)C)cc1NC(=O)c1ccccc1SCC(=O)N1CCCC1`, the AC50 under setting [1] was 23.1 µM [rising, partial curve, poor fit].

On to `Cc1ccsc1/C=N/NC(=O)c1sccc1C`, for which the AC50 under setting [1] is 0.447 µM [falling, full curve, poor fit].

Regarding `COc1ccc(NC(=O)C(C)Oc2ccc(/C(C)=N\O)cc2)cc1` (stereo not given), the AC50 under setting [1] is 25.9 µM [falling, single point].

Consider `COc1ccccc1-c1ccc(SCc2ccc(F)cc2)nn1`, for which the AC50 under setting [1] was 10 µM [falling, partial curve].

With `COC(=O)[C@@H](Cc1c[nH]c2ccccc12)NC(=O)C1CCCN(S(=O)(=O)c2ccc(C)cc2)C1` (stereo not given in full), the AC50 under setting [1] was 25.1 µM [falling, single point].

As for `Cc1cccc(-c2nnc(SCC(=O)N3CCCC3)o2)c1`, the AC50 under setting [1] is 12.6 µM [falling, partial curve, poor fit].

Consider `Clc1ccc(OCCCn2ccnc2)c(Br)c1`, for which, under setting [1], the AC50 is 0.184 µM [rising, full curve].

Turning to `Cc1ccc(-n2ncc3c(=O)[nH]c(SCC(=O)N4CCC(C)CC4)nc32)cc1C`, the AC50 under setting [1] was 0.13 µM [rising, full curve, poor fit].

Take `COc1cc(NC(=O)c2cc3ccccc3cc2O)c(OC)cc1Cl`: the concentration at half-maximal activity (AC50) under setting [1] was 0.0891 µM [rising, full curve, poor fit].

Regarding `COc1ccccc1CNC(=S)Nc1ccc2nc(N3CCN(C)CC3)cc(C)c2c1`, the AC50 under setting [1] was 2.82 µM [falling, full curve, poor fit].

With `N#Cc1cc2c(nc1SCC1COc3ccccc3O1)CCC2` (stereo not given), under setting [1], the AC50 was 7.94 µM [rising, partial curve].

As to `CCn1c(-c2csc3ccccc23)n[nH]c1=S`, the AC50 under setting [1] is 11.6 µM [falling, partial curve].

For the molecule `O=c1[nH]c(COc2ccc(Cl)cc2Br)nc2ccccc12`, the AC50 under setting [1] is 6.31 µM [rising, single point].

In the case of `Cn1c(N/N=C/c2cc3ccccc3nc2Cl)nc2ccccc21`, the concentration at half-maximal activity (AC50) runs as follows: under setting [1], 29.1 µM [falling, single point]; under setting [2], 29.1 µM [falling, single point].

As to `N#CC1(NC(=O)COC(=O)CCN=C2NS(=O)(=O)c3ccccc32)CCCCC1`, the AC50 under setting [1] was 3.55 µM [rising, partial curve, poor fit].

`CCCCCCOc1ccc(N2C(=O)CC(SCCN)C2=O)cc1` (stereo not given): the concentration at half-maximal activity (AC50) under setting [1] is 20 µM [rising, partial curve, poor fit].
